# From PubChem BioAssay AID445 (National Center for Advancing Translational Sciences (NCATS), 2006)
# This is one part of the list. Further columns of the screen follow, without active or inactive calls. Most of these compounds were active or inconclusive in the main read-out, so they are no random draw. Words in brackets tell the shape of the fitted curve; partial curves, single points and poor fits give uncertain potencies.
# Experiment: IkB Signaling
# Details: ABC-DLBCL IkBa-CBG/CBR dual luciferase ratio (green luciferase fused to IkBa over red control in OCI-Ly3 lymphoma cells), 4 h
# Outline: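 Curves were fitted separately to fusion (green), unfused (red) and ratio luminescence, then classed by r2, magnitude and activity. Cells: OCI-Ly3, 4 h compound plus doxycycline at 37C; 10 uM MG-132 defined full response.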
# [1] = measured here: control luc red channel unless noted
# [2] = measured here: IkB-luc green channel
# [3] = measured here: control luc red channel
compound,measurement,setting,value
CCOC(=O)c1ccc(NC(=O)c2cc(S(=O)(=O)N3CCOCC3)ccc2O)cc1,AC50,[1],"10 µM [falling, partial curve]"
O=C(CCCSc1nc(-c2ccco2)cc(C(F)(F)F)n1)NCc1cccs1,AC50,[1],"25.1 µM [falling, partial curve]"
CCOc1ccc(C(=O)Nc2ccc3nc4c(c(Nc5ccccc5OC)c3c2)CCCC4)cc1,AC50,[1],"10 µM [falling, partial curve]"
O=C(Nc1nc(-c2ccc(S(=O)(=O)N3CCCCCC3)cc2)cs1)c1cccs1,AC50,[1],"5.01 µM [falling, full curve, poor fit]"
O=C(CC1N=C2c3ccccc3N=C(SCC(=O)Nc3ccccc3F)N2C1=O)NCc1ccc2c(c1)OCO2 (stereo not drawn),AC50,[1],"39.8 µM [falling, single point]"
Cc1cc(O)c(-c2n[nH]c3c2C(c2cccc(O)c2)N(Cc2cccnc2)C3=O)cc1Cl (stereo not drawn),AC50,[1],"12.6 µM [falling, partial curve]"
COc1cc(OC)c(NC(=O)C(C)n2nc(-c3ccc(C)cc3)c3c(c2=O)CCCC3)cc1Cl (stereo not drawn),AC50,[1],"10 µM [falling, partial curve]"
N#Cc1ccccc1NC(=O)C(=O)NCC(c1cccnc1)N1CCc2ccccc21 (stereo not drawn),AC50,[1],"25.1 µM [falling, single point]"
c1ccc(-n2ncc(-c3nn[nH]n3)n2)cc1,AC50,[2],"1.58 µM [rising, single point]"
same,AC50,[3],"25.1 µM [falling, partial curve]"
COC(=O)c1ccc(NC(=O)CSc2nc3cc4ccccc4cc3[nH]2)cc1,AC50,[1],"0.0398 µM [falling, full curve, poor fit]"
CCOC(=O)CC(NC(=O)CCc1c(C)nc2cc(-c3ccccc3)nn2c1C)c1ccc(C)cc1 (stereo not drawn),AC50,[1],"1.26 µM [falling, full curve]"
O=C(c1ccccc1)c1ccc2nc(N3CCN(c4ccc(F)cc4)CC3)c3nncn3c2c1,AC50,[1],"3.16 µM [falling, partial curve, poor fit]"
COc1ccccc1-c1cc2nc(C)c(CCC(=O)NC3CCCCC3)c(C)n2n1,AC50,[1],"1 µM [falling, full curve]"
Cc1ccc(-c2nc(CNC(=O)NC3CCCCC3)c(C)o2)cc1,AC50,[1],"31.6 µM [falling, partial curve, poor fit]"
CC(=O)c1cccc(NC(=O)Nc2cc3c(cc2N2CCCC2)n(C)c(=O)n3C)c1,AC50,[1],"31.6 µM [rising, partial curve] [measured here: IkB-luc green channel]"
CCc1ccc(C(=O)Nc2cccc(-c3nc4cc(C(C)C)ccc4o3)c2)cc1,AC50,[1],"0.398 µM [falling, full curve]"
CCn1c(=O)c(C(=O)NCCc2ccccc2)c(O)c2ccccc21,AC50,[1],"1 µM [falling, partial curve]"
COc1ccc(Cn2c(SCc3ccc(C(=O)NCc4cccs4)cc3)nc3ccncc32)cc1,AC50,[1],"12.6 µM [falling, partial curve]"
O=S(=O)(c1ccccc1)c1nc(-c2ccco2)oc1SCc1ccc(F)cc1,AC50,[1],"0.1 µM [rising, full curve, poor fit]"
O=C(CCCn1c(=O)[nH]c2ccsc2c1=O)N1CCN(c2ccc(Cl)cc2)CC1,AC50,[1],"25.1 µM [falling, partial curve]"
O=C(CSc1nnc(-c2ccc(Cl)cc2)c(-c2ccc(Cl)cc2)n1)NC1CCCC1,AC50,[1],"12.6 µM [falling, partial curve]"
CCOC(=O)c1c(C)[nH]c(C)c1S(=O)(=O)N(C)CC(=O)N1CCN(c2cccc(Cl)c2)CC1,AC50,[1],"12.6 µM [falling, partial curve]"
Cc1cc(C)cc(NC(=O)Cn2c(=O)n(CC(=O)NCCc3ccccc3)c(=O)c3ccccc32)c1,AC50,[1],"12.6 µM [falling, partial curve]"
COc1ccc(C(=O)Nc2nnc(SCc3cc(=O)n4cc(Cl)ccc4n3)s2)cc1,AC50,[1],"7.94 µM [falling, single point]"
Cc1ccc(C(=O)c2cn(Cc3c(F)cccc3Cl)c3nc(C)ccc3c2=O)cc1,AC50,[1],"20 µM [falling, partial curve]"
Cc1cccc(NC(=O)Nc2cccc(C#N)c2)n1,AC50,[1],"3.98 µM [falling, full curve, poor fit]"
CCCCc1nn2c(=O)cc(COC(=O)c3cccs3)nc2s1,AC50,[1],"20 µM [falling, partial curve]"
Cc1ccc(NC(=O)CSC2=C(C#N)C(c3ccco3)C3=C(CC(C)(C)CC3=O)N2)cc1 (stereo not drawn),AC50,[1],"12.6 µM [falling, partial curve]"
Clc1cccc(-n2ncc3c(N4CCCCCC4)ncnc32)c1,AC50,[1],"39.8 µM [falling, single point]"
Cc1cc(C(=O)N2CCN(c3cc(Cl)ccc3C)CC2)c2c(C)nn(-c3ccccc3)c2n1,AC50,[1],"12.6 µM [falling, partial curve]"
Cc1ccc(CNC(=O)c2cccc(Nc3nc4ccccc4n4nnnc34)c2)cc1,AC50,[1],"2.51 µM [falling, full curve]"
Cn1c(CCNC(=O)c2ccco2)nc2cc(NC(=O)C3CCCCC3)ccc21,AC50,[1],"15.8 µM [falling, partial curve]"
COc1cc(OC)c(NC(=O)c2c(C)oc3ncnc(N4CCCCC4)c23)cc1Cl,AC50,[1],"39.8 µM [falling, single point]"
COc1cccc(Nc2ncc3ncc(=O)n(Cc4cccs4)c3n2)c1,AC50,[2],"2.51 µM [falling, partial curve]"
same,AC50,[3],"3.16 µM [falling, partial curve]"
Cc1ccc(N2CC(NC(=O)Cc3ccc(F)cc3)CC2=O)cc1 (stereo not drawn),AC50,[1],"0.316 µM [rising, partial curve]"
O=C(Cn1c(=O)n(Cc2ccc(C(=O)NCc3ccc4c(c3)OCO4)cc2)c(=O)c2ccccc21)Nc1cccc(Cl)c1,AC50,[1],"3.16 µM [rising, partial curve, poor fit]"
Cc1noc(-c2ccc(-c3noc(-c4ccccc4)n3)cc2)n1,AC50,[1],"1 µM [rising, single point]"
CCc1oc2ccccc2c1C(=O)CCN1CCCCC1,AC50,[1],"20 µM [falling, single point]"
O=C(c1ccco1)N1CCN(C(c2cccs2)c2sc3ncnn3c2O)CC1 (stereo not drawn),AC50,[1],"5.01 µM [falling, partial curve]"
CCC(C(=O)NCc1ccc2c(c1)CCN2C(=O)c1ccc(F)cc1)c1ccccc1 (stereo not drawn),AC50,[1],"25.1 µM [falling, partial curve]"
CCOC(=O)/C=C/S(=O)(=O)c1ccc(NC(C)=O)cc1,AC50,[2],"7.94 µM [falling, full curve]"
same,AC50,[3],"5.01 µM [falling, partial curve]"
CCOc1ccc(C(=O)NCCn2cc(SCC(=O)Nc3cc(C)on3)c3ccccc32)cc1,AC50,[1],"12.6 µM [falling, partial curve]"
CC(=O)c1cc(-c2ccccc2)n(CCC(=O)Nc2nc3c(C)cccc3s2)c1C,AC50,[1],"10 µM [rising, partial curve]"
CC1CCN(S(=O)(=O)c2ccc3[nH]cc(C(=O)NCc4ccc(F)cc4)c(=O)c3c2)CC1,AC50,[1],"7.94 µM [rising, full curve, poor fit]"
Cc1n[nH]c(C)c1N1C(=O)c2cccc3c(N4CCCCCC4)ccc(c23)C1=O,AC50,[1],"25.1 µM [falling, partial curve]"
CCN1C(=O)CC(C(=O)Nc2ccc(F)cc2)SC1=Nc1ccc2c(c1)OCO2 (stereo not drawn),AC50,[1],"25.1 µM [falling, partial curve]"
CCCCOc1ccc(S(=O)(=O)Nc2cccc(-c3ccc(N4CCOCC4)nn3)c2)cc1,AC50,[1],"15.8 µM [falling, partial curve]"
COc1ccccc1-c1nc(NC(C)=O)n[nH]1,AC50,[1],"7.94 µM [falling, partial curve]"
CC(Sc1nc(-c2ccccc2)c(C#N)c(=O)[nH]1)C(=O)Nc1ccc(F)cc1 (stereo not drawn),AC50,[1],"7.94 µM [falling, partial curve]"
COc1ccc(N(CC(=O)N2CCN(c3cc(C)ccc3C)CC2)S(=O)(=O)c2c(C)noc2C)cc1,AC50,[1],"10 µM [falling, partial curve]"
O=C(CSc1ccc(Cl)cc1)c1ccco1,AC50,[1],"39.8 µM [rising, single point] [measured here: IkB-luc green channel]"
CCOC(=O)c1cc(-c2ccc(F)cc2)n(CCC(=O)Nc2ccccc2OC)c1C,AC50,[1],"31.6 µM [falling, partial curve]"
Cc1ccc(CSc2nc(=O)c3c(C)cc(C)nc3n2C2CC2)cc1,AC50,[1],"39.8 µM [falling, single point]"
c1ccc2nc(-c3nc4ccccc4o3)ccc2c1,AC50,[1],"3.16 µM [falling, full curve]"
COC(=O)c1cc(Cl)c(NC(=O)/C=C/c2ccc(Cl)cc2Cl)cc1OC,AC50,[1],"10 µM [falling, partial curve]"
COc1ccccc1C(=O)NCCc1nc2ccccc2[nH]1,AC50,[1],"10 µM [falling, partial curve]"
Cc1cccc(Oc2nc3c(C)cccn3c(=O)c2/C=C(\C#N)c2nc3ccccc3s2)c1,AC50,[1],"12.6 µM [falling, single point]"
CCOc1ccc(N2CC(c3nc4ccccc4n3CCCOc3ccc(OC)cc3)CC2=O)cc1 (stereo not drawn),AC50,[1],"15.8 µM [falling, partial curve]"
CC(O)CNC(=O)C1CCN(Cc2ccc(OCc3ccccc3)cc2)CC1 (stereo not drawn),AC50,[1],"5.01 µM [falling, partial curve]"
COCCNC(=O)CSc1nnc(-c2ccc(OC)c(OC)c2)c(-c2ccc(OC)c(OC)c2)n1,AC50,[1],"3.16 µM [rising, full curve, poor fit]"

# A different layout for some results above:
compound	measurement	setting	value
COC(=O)c1ccc(NC(=O)CSc2nc3cc4ccccc4cc3[nH]2)cc1	AC50	[1]	0.0398 µM [falling, full curve, poor fit]
O=S(=O)(c1ccccc1)c1nc(-c2ccco2)oc1SCc1ccc(F)cc1	AC50	[1]	0.1 µM [rising, full curve, poor fit]
CCCCc1nn2c(=O)cc(COC(=O)c3cccs3)nc2s1	AC50	[1]	20 µM [falling, partial curve]
O=C(CSc1ccc(Cl)cc1)c1ccco1	AC50	[1]	39.8 µM [rising, single point] [measured here: IkB-luc green channel]
CC(O)CNC(=O)C1CCN(Cc2ccc(OCc3ccccc3)cc2)CC1 (stereo not drawn)	AC50	[1]	5.01 µM [falling, partial curve]
